{
  "source": "patent US20120004457",
  "about": "(published 2012)",
  "key": {"[1]": {"test": "general procedure: Fmoc solid-phase peptide synthesis; Fmoc-Leu-CLEAR Acid resin; HBTU-HOBt/DIEA; DCC/HOBt; HATU/DIEA", "conditions": "whole synthesis, scale 0.017 mmol"}, "[2]": {"test": "general procedure: Fmoc solid-phase peptide synthesis; Fmoc-CLEAR-Amide resin; HBTU-HOBt/DIEA; DCC/HOBt; HATU/DIEA", "conditions": "whole synthesis, scale 0.2 mmol"}},
  "data": [
    {"substance": "Ser(CH2S—S-Bu^t)-Asn-Ala-Thr(GaINAcBn)-Lys-Lys-Pro-Tyr-Ile-Leu-OH", "values": [
      {"measurement": "isolated mass", "setting": "[1]", "result": 5.5, "unit": "mg"},
      {"measurement": "isolated yield", "setting": "[1]", "result": 21, "unit": "%"}
    ]},
    {"substance": "pGlu-Ser-Glu-Glu-Gly-Gly-SC6H4CH2COOH", "values": [
      {"measurement": "isolated mass", "setting": "[2]", "result": 4.3, "unit": "mg"},
      {"measurement": "isolated yield", "setting": "[2]", "result": 6, "unit": "%"}
    ]}
  ]
}
